Results taken from US20210171598A1, “PEPTIDE HORMONE WITH ONE OR MORE O-GLYCANS” (priority 2017, published 2021).
Not every detail of the peptide structures is certain; ends, links or a residue may be inferred. Some results were stated once for a whole list of compounds, not compound by compound.

Experiments:
male Sprague Dawley rats = test: Acute cardiovascular and renal actions of i.v. infusion in anesthetized rats; assay type: in vivo; conditions: rat
From the text: The protocol is outlined in FIG. 9A.
Rats were then subjected to vessel and bladder cannulation for peptide infusion, BP measurement, blood sampling and urine collection. A polyethylene (PE)-5G tube catheter was placed into the jugular vein for inulin, peptide intravenous infusion. The carotid artery was cannulated with a PE-50 tube catheter for BP measurement (Sonometrics, London, Ontario, Canada) and blood sampling. The bladder was accessed and cannulated with a PE-50 tube catheter for passive urine collection. After completion of the above procedural set up, a 45 min equilibration period was performed that included continuous IV inulin and saline infusion. After the 45 min equilibration period, baseline (Time==Q min) parameters were recorded and one blood sampling (0.7 ml) was performed. The inulin and saline infusion was replaced by a continuous intravenously (i.v.) infusion of equimolar ANP-Ser19/ST or ANP-Ser25/ST for 60 min. The infusion rate was weight adjusted and equals weight*0.7/6000 ml/min. After 60 min infusion (Time=60 min), another blood sampling (0.7 ml) was conducted. […] Urine was collected at the end of the infusion (Time=60 min) and the study (Time=90 min). Urinary sodium was measured with pHOx Ultra (Nova Biomedical, Waltham, Mass.). Urine flow (UV) and urinary sodium excretion (UNaV) were calculated as urine volume or sodium clearance per min, Inulin concentrations were measured with enthrone method and inulin clearance was used for GFR quantification. Urinary cGMP and ANP excretion rate was calculated based on raw values obtained in the urine and UV.

[1] = Plasma and urine ANP after infusion in rats (radioimmunoassay); assay type: in vivo; conditions: rat, after 90 minutes
[2] = biological target: T1, insulin-degrading enzyme (IDE) (Homo sapiens, UniProt P14735); test: In vitro degradation by insulin-degrading enzyme, MALDI-TOF time course; assay type: in vitro ADME; conditions: 37° C.
T1 construct: purchased R&D Systems
T1 sequence (P14735 1-1019): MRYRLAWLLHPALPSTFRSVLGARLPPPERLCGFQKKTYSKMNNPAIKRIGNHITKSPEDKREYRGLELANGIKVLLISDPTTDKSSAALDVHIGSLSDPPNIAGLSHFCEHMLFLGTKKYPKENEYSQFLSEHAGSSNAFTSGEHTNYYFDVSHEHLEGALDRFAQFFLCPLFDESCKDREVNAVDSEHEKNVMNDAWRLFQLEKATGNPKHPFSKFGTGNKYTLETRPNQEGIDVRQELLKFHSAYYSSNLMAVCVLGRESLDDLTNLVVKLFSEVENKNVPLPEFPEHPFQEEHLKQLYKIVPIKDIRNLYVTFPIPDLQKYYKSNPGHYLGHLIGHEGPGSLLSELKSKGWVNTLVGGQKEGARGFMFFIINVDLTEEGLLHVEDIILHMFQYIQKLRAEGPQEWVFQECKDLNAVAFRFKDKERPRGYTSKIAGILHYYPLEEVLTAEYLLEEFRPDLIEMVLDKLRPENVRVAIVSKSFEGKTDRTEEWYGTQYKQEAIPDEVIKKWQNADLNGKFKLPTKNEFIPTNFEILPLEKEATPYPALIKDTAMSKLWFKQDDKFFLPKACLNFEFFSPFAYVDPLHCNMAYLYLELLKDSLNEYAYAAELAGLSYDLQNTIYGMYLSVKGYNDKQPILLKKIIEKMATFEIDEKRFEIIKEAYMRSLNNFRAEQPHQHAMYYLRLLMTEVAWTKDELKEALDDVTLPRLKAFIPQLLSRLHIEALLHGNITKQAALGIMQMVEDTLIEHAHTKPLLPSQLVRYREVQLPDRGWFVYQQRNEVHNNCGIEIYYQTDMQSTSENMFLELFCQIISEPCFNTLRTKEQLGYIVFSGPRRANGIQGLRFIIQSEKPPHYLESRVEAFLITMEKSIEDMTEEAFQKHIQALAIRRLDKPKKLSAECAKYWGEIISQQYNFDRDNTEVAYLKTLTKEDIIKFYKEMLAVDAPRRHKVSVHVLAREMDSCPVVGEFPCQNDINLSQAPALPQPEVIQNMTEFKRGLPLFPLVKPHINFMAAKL

NPR-A receptor = biological target: T2, NPR-A receptor (Homo sapiens, UniProt P16066); test: cGMP accumulation (HTRF), NPR-A; assay type: cell-based; conditions: cGMP generation
T2 sequence (P16066 33-1061): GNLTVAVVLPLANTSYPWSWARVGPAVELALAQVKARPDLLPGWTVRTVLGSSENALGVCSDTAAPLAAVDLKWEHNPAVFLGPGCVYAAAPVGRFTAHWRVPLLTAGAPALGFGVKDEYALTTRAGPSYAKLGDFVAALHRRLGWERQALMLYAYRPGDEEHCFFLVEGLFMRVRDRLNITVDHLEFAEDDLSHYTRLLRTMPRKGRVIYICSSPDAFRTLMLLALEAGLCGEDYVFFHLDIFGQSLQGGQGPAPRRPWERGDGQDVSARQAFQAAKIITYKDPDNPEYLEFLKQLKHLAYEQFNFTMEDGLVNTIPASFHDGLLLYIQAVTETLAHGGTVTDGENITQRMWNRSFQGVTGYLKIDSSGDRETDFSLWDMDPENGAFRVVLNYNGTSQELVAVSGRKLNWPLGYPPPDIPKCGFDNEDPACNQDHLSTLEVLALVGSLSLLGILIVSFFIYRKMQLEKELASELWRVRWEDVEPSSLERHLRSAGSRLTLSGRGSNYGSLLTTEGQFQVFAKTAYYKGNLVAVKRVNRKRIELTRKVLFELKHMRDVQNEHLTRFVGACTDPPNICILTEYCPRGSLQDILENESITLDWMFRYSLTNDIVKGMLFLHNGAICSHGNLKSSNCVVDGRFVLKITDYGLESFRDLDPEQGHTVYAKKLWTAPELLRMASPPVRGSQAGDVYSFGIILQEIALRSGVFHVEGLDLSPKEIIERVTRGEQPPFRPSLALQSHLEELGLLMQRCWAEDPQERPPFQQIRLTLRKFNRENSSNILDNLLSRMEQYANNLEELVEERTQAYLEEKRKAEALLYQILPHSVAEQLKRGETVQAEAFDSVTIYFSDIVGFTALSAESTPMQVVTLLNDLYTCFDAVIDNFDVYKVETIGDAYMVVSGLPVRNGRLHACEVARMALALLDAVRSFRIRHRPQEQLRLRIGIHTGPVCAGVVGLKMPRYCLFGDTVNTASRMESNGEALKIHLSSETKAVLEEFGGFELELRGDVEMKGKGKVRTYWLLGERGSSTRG

[3] = 600 pmol/kg/min i.v., 60 minutes infusion

CC[C@H](C)[C@@H]1NC(=O)[C@H](CCCNC(=N)N)NC(=O)[C@H](CC(=O)O)NC(=O)[C@H](CCSC)NC(=O)[C@H](CCCNC(=N)N)NC(=O)CNC(=O)CNC(=O)[C@H](Cc2ccccc2)NC(=O)[C@@H](NC(=O)[C@H](CO)NC(=O)[C@H](CO)NC(=O)[C@H](CCCNC(=N)N)NC(=O)[C@H](CCCNC(=N)N)NC(=O)[C@H](CC(C)C)NC(=O)[C@@H](N)CO)CSSC[C@@H](C(=O)N[C@@H](CC(N)=O)C(=O)N[C@@H](CO[C@H]2O[C@H](CO)[C@H](O)[C@H](O[C@@H]3O[C@H](CO)[C@H](O)[C@H](O[C@]4(C(=O)O)C[C@H](O)[C@@H](NC(C)=O)[C@H]([C@H](O)[C@H](O)CO)O4)[C@H]3O)[C@H]2NC(C)=O)C(=O)N[C@@H](Cc2ccccc2)C(=O)N[C@@H](CCCNC(=N)N)C(=O)N[C@@H](Cc2ccc(O)cc2)C(=O)O)NC(=O)CNC(=O)[C@H](CC(C)C)NC(=O)CNC(=O)[C@H](CO)NC(=O)[C@H](CCC(N)=O)NC(=O)[C@H](C)NC(=O)CNC1=O [ANP-Ser25/ST]
change in mean arterial pressure (MAP) over the infusion period (male Sprague Dawley rats; [3]): decrease | change in plasma cGMP over the infusion period (male Sprague Dawley rats; [3]): increase | MAP in the 30 minutes clearance period (male Sprague Dawley rats; after 60 min infusion): sustained or further reduced | effect on diuresis and natriuresis (male Sprague Dawley rats; i.v. infusion): did not result in increased diuresis nor natriuresis | urine flow (male Sprague Dawley rats; remained constant): 11 to 18 µL/min | fold higher plasma concentration than non-glycosylated ANP [1]: 17-33 fold | fold higher urine concentration than ANP [1]: 41-74 fold

CC[C@H](C)[C@@H]1NC(=O)[C@H](CCCNC(=N)N)NC(=O)[C@H](CC(=O)O)NC(=O)[C@H](CCSC)NC(=O)[C@H](CCCNC(=N)N)NC(=O)CNC(=O)CNC(=O)[C@H](Cc2ccccc2)NC(=O)[C@@H](NC(=O)[C@H](CO)NC(=O)[C@H](CO)NC(=O)[C@H](CCCNC(=N)N)NC(=O)[C@H](CCCNC(=N)N)NC(=O)[C@H](CC(C)C)NC(=O)[C@@H](N)CO)CSSC[C@@H](C(=O)N[C@@H](CC(N)=O)C(=O)N[C@@H](CO[C@H]2O[C@H](CO)[C@H](O)[C@H](O)[C@H]2NC(C)=O)C(=O)N[C@@H](Cc2ccccc2)C(=O)N[C@@H](CCCNC(=N)N)C(=O)N[C@@H](Cc2ccc(O)cc2)C(=O)O)NC(=O)CNC(=O)[C@H](CC(C)C)NC(=O)CNC(=O)[C@H](CO)NC(=O)[C@H](CCC(N)=O)NC(=O)[C@H](C)NC(=O)CNC1=O [ANP-Ser25/Tn]
remained partly as full length glycopeptide after incubation with insulin-degrading enzyme [2]: 30 to 60 min

CC[C@H](C)[C@@H]1NC(=O)[C@H](CCCNC(=N)N)NC(=O)[C@H](CC(=O)O)NC(=O)[C@H](CCSC)NC(=O)[C@H](CCCNC(=N)N)NC(=O)CNC(=O)CNC(=O)[C@H](Cc2ccccc2)NC(=O)[C@@H](NC(=O)[C@H](CO)NC(=O)[C@H](CO)NC(=O)[C@H](CCCNC(=N)N)NC(=O)[C@H](CCCNC(=N)N)NC(=O)[C@H](CC(C)C)NC(=O)[C@@H](N)CO)CSSC[C@@H](C(=O)N[C@@H](CC(N)=O)C(=O)N[C@@H](CO[C@H]2O[C@H](CO)[C@H](O)[C@H](O)[C@H]2NC(C)=O)C(=O)N[C@@H](Cc2ccccc2)C(=O)N[C@@H](CCCNC(=N)N)C(=O)N[C@@H](Cc2ccc(O)cc2)C(=O)O)NC(=O)CNC(=O)[C@H](CC(C)C)NC(=O)CNC(=O)[C@H](CO[C@H]2O[C@H](CO)[C@H](O)[C@H](O)[C@H]2NC(C)=O)NC(=O)[C@H](CCC(N)=O)NC(=O)[C@H](C)NC(=O)CNC1=O [ANP-Ser19+25/Tn]
time to complete degradation by insulin-degrading enzyme ([2]; MALDI-TOF): ≤ 15 min | NPR-A receptor activation (NPR-A receptor): completely dismiss receptor activation

CC[C@H](C)[C@@H]1NC(=O)[C@H](CCCNC(=N)N)NC(=O)[C@H](CC(=O)O)NC(=O)[C@H](CCSC)NC(=O)[C@H](CCCNC(=N)N)NC(=O)CNC(=O)CNC(=O)[C@H](Cc2ccccc2)NC(=O)[C@@H](NC(=O)[C@H](CO)NC(=O)[C@H](CO)NC(=O)[C@H](CCCNC(=N)N)NC(=O)[C@H](CCCNC(=N)N)NC(=O)[C@H](CC(C)C)NC(=O)[C@@H](N)CO)CSSC[C@@H](C(=O)N[C@@H](CC(N)=O)C(=O)N[C@@H](CO)C(=O)N[C@@H](Cc2ccccc2)C(=O)N[C@@H](CCCNC(=N)N)C(=O)N[C@@H](Cc2ccc(O)cc2)C(=O)O)NC(=O)CNC(=O)[C@H](CC(C)C)NC(=O)CNC(=O)[C@H](CO[C@H]2O[C@H](CO)[C@H](O)[C@H](O)[C@H]2NC(C)=O)NC(=O)[C@H](CCC(N)=O)NC(=O)[C@H](C)NC(=O)CNC1=O [ANP-Ser19/Tn]
remained partly as full length glycopeptide after incubation with insulin-degrading enzyme [2]: 30 to 60 min
